Experimental data published in patent US8940719B2, “Lithocholic acid analogues that inhibit sialyltransferase” (Academia Sinica, priority 2006, dated 2015).

Test system: CL1-5 lung cancer cells
Assay: Two-dimensional electrophoresis with phosphoprotein stain
Assay type: cell-based
Details: CL1-5 cells, 10 μM, 48 hours

**Q.** What does the source list for `C[C@H](CCC(=O)O)C1CC[C@H]2C3CC[C@@H]4C[C@H](OC(=O)[C@@H](N)CC(=O)O)CC[C@]4(C)C3CC[C@]12C` (stereo partly drawn) [Compound 13, (R)-4-((3R,5R,10S,13R,14S)-3-((S)-2-amino-3-carboxypropanoyloxy)-10,13-dimethyl-hexadecahydro-1H-cyclopenta[a]phenanthren-17-yl)pentanoic acid]?
**A.** protein spots with decreased intensity on 2-D gels: forty-nine spots with decreased intensity; protein spots with increased intensity on 2-D gels: four spots with increased intensity
